# This is one part of the list.
# Sequences of proteins named here, by UniProt entry; tags and fusion partners are left off. A change or cut given only in a name is not applied to a line headed by its entry.
# UniProt Q08722, whole entry, looked up: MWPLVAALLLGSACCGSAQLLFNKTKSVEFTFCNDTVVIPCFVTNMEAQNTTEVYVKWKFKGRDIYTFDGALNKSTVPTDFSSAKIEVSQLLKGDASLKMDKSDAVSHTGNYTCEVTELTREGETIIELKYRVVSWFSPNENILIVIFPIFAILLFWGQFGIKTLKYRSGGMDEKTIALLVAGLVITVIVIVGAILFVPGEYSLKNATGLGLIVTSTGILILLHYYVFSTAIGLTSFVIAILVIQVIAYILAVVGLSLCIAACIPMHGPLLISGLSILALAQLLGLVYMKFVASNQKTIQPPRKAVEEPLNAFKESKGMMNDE
# UniProt Q8IWD4: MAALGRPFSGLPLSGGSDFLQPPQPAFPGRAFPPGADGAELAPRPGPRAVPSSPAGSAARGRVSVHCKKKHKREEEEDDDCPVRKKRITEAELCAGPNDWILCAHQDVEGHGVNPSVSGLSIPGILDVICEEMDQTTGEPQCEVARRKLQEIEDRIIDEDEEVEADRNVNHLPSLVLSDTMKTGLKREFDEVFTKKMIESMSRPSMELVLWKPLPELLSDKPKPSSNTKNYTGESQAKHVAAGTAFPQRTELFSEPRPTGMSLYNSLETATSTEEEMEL
# UniProt Q92851: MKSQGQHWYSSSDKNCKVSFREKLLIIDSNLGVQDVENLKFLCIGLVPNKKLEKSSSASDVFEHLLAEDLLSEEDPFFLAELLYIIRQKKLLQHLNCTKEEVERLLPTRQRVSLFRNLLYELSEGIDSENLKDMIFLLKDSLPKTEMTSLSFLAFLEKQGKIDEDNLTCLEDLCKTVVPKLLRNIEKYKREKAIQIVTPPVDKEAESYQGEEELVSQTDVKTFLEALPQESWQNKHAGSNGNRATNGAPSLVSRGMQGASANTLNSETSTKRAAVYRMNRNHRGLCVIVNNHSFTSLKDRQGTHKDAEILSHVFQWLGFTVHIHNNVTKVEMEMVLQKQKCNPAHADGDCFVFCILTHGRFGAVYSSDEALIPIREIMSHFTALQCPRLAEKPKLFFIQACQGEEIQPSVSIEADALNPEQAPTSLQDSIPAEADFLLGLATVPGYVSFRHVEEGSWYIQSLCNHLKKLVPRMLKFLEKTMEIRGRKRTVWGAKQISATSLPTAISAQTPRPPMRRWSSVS
# UniProt P48509: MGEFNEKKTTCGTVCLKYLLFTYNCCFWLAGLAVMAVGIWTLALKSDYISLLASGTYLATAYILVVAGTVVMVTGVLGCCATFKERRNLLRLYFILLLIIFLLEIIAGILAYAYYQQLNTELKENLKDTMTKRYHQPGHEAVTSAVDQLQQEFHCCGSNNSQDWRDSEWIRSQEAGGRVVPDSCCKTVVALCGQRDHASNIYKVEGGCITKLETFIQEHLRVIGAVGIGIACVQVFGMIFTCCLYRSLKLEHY
# UniProt P40227, whole entry, looked up: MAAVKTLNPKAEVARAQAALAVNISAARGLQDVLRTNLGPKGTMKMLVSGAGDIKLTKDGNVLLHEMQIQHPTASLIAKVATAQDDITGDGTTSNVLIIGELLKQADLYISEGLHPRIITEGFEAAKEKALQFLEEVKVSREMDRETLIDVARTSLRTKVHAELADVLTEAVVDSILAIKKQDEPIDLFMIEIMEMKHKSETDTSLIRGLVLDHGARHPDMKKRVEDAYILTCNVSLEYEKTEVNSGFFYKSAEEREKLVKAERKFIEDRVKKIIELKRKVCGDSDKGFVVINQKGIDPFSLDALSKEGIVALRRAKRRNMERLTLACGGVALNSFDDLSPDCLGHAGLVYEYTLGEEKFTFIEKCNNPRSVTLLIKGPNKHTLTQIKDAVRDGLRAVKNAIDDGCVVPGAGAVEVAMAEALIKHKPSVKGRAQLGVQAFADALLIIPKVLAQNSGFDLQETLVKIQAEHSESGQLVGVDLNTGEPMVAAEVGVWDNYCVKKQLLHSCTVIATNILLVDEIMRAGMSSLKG
# UniProt P20810: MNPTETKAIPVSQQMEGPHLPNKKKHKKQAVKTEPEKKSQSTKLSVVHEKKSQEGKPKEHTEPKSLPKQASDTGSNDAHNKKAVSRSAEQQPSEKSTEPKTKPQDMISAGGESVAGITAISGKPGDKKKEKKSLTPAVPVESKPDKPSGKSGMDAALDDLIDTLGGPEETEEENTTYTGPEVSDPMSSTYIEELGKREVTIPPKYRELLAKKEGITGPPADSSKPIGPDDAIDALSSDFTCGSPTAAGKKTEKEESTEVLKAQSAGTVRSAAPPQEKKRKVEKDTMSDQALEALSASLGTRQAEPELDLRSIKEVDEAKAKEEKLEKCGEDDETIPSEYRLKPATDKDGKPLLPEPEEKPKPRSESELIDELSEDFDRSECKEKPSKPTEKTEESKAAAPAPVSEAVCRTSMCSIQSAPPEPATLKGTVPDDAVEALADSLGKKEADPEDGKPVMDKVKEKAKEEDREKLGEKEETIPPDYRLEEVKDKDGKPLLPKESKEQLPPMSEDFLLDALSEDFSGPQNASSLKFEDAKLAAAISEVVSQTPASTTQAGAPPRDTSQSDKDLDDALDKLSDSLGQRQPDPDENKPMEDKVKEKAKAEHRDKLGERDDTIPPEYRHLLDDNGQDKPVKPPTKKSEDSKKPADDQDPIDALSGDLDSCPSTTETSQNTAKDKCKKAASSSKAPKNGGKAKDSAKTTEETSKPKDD
# UniProt Q8NHZ8, whole entry, looked up: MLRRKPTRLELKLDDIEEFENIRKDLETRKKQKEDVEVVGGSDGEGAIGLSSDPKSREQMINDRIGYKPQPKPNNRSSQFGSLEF
# UniProt P49589: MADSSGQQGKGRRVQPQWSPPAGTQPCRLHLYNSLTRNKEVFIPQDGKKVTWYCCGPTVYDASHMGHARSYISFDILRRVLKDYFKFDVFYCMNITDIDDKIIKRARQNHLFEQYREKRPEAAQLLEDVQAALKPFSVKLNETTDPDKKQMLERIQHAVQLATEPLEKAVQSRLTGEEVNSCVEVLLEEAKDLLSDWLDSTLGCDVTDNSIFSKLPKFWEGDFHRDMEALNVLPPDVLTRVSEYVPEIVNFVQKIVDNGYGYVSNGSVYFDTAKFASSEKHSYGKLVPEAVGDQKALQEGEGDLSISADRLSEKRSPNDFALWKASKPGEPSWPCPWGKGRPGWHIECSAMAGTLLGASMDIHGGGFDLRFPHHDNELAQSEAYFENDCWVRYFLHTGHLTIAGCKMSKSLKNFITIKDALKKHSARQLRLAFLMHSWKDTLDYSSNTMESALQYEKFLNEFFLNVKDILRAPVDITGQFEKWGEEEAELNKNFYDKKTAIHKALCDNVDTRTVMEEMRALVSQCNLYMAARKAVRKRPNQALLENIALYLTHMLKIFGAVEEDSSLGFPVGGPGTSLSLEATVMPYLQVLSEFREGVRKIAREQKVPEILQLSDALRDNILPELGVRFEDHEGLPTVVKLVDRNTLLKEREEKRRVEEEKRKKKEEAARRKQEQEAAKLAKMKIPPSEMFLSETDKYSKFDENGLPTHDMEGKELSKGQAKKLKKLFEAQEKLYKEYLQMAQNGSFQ
# UniProt O60563, whole entry, looked up: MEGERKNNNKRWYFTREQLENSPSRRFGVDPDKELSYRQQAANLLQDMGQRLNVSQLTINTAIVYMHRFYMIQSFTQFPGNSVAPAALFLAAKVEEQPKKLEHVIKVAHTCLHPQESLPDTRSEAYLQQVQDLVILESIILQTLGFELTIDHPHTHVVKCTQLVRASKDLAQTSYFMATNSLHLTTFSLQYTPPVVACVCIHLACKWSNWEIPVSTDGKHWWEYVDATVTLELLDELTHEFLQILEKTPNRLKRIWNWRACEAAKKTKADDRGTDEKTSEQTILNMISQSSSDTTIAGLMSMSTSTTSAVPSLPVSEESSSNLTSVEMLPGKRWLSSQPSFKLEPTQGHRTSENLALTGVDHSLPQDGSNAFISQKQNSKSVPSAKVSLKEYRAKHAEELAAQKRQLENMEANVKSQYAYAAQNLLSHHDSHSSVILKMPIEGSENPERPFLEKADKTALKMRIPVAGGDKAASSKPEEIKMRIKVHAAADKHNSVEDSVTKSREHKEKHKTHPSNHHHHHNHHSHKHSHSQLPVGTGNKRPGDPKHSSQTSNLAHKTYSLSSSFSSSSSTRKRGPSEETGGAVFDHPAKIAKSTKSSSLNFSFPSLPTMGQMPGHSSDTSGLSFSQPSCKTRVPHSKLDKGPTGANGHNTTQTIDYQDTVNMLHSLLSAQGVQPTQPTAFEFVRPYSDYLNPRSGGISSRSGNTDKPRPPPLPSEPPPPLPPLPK
# UniProt P0C221: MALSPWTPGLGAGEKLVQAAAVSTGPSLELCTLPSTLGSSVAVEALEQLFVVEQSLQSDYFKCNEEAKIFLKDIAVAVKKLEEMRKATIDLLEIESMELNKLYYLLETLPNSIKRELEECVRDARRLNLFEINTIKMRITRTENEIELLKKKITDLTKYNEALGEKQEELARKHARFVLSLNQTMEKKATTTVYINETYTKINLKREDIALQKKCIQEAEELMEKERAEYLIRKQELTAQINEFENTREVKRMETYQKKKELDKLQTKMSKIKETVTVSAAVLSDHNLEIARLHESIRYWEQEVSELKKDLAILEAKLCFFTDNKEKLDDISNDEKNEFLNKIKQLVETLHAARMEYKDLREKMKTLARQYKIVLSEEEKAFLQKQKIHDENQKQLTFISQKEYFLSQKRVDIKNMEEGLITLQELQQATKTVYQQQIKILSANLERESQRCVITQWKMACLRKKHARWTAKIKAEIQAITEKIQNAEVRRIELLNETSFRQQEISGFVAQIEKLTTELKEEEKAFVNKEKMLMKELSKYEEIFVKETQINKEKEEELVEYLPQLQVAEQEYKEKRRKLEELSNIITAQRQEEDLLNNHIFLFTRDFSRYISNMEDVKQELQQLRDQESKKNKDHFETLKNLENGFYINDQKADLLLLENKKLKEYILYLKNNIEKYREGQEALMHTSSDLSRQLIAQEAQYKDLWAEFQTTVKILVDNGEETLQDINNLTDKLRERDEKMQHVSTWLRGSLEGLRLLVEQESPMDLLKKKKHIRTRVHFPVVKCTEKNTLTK
# UniProt Q8WUD4: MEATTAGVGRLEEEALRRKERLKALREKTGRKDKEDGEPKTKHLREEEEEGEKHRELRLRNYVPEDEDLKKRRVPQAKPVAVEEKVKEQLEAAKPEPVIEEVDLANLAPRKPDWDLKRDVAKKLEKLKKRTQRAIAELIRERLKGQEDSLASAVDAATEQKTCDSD
# UniProt P35520: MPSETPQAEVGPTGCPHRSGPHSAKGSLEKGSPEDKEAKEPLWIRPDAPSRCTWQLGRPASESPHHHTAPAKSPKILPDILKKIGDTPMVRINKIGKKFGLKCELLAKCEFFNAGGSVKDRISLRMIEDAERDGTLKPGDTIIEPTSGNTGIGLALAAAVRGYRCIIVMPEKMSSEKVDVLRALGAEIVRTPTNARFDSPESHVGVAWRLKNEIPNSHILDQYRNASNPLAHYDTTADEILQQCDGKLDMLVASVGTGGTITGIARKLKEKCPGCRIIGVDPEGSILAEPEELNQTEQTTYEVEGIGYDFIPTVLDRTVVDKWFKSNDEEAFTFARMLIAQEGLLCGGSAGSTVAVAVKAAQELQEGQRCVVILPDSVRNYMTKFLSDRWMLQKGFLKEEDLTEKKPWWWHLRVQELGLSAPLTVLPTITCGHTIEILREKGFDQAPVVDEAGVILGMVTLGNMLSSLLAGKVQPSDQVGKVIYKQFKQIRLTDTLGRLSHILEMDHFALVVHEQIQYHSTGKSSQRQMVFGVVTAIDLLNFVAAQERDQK
# UniProt P86791: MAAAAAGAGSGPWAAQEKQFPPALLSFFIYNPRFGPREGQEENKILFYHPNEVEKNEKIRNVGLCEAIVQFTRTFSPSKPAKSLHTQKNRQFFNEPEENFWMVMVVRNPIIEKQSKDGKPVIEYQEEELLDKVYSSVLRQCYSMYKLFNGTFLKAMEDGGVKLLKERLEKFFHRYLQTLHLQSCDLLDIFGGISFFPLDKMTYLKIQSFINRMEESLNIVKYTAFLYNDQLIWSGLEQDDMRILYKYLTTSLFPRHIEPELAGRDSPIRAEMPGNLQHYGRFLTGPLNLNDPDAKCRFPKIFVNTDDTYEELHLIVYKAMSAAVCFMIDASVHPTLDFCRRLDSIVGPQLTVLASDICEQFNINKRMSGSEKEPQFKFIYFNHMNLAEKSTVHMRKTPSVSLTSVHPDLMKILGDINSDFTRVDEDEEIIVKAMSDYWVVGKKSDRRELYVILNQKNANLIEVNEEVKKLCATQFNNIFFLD
# UniProt Q9BRT8: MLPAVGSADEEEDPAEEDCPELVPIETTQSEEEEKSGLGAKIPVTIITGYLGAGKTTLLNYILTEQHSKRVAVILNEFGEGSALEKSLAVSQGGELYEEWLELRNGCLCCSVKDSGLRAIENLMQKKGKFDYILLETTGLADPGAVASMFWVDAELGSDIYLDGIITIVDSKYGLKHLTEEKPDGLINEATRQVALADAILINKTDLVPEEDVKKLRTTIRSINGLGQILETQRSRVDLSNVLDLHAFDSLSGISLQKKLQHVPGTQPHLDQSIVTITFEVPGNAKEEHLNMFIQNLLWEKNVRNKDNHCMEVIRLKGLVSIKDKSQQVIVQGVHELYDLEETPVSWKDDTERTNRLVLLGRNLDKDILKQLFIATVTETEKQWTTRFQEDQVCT
# Assays:
# Test in all cases: log2 fold change, soluble protein after heating vs DMSO (PISA); higher = thermal stabilisation; K562 cells, 10 uM, 30 min; active = over 0.2 and 3.5 SD of the protein, either way, in both replicates (recomputed)
# bafetinib = compound: Cc1ccc(NC(=O)c2ccc(CN3CC[C@H](N(C)C)C3)c(C(F)(F)F)c2)cc1Nc1nccc(-c2cncnc2)n1 [bafetinib]
# Procedure, shortened: (§1)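 K562 cells at 2×10^6 cells/mL were treated with 10 μM compound for 30 min. Aliquots were heated for 3 min across 48°C-58°C, pooled, and extracted in PBS with 0.5% NP-40 at 4°C; soluble protein was the supernatant after 21,000xg for 90 min. Soluble protein was quantified by TMTpro 16plex LC-MS/MS with channel sums equalised, and reported as log2 fold change in thermal stability against DMSO controls, with values from duplicates.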
# [1] = compound: Cc1cccc(CC(=O)N2CCc3c2ccc(-c2cn(C)c4ncnc(N)c24)c3F)n1
# Procedure, shortened: as §1
# nilotinib = compound: Cc1cn(-c2cc(NC(=O)c3ccc(C)c(Nc4nccc(-c5cccnc5)n4)c3)cc(C(F)(F)F)c2)cn1 [nilotinib]
# Procedure, shortened: as §1
# [2] = compound: Cc1nc(Nc2n[nH]c3c2CN(C(=O)N[C@H](CN(C)C)c2ccccc2)C3(C)C)c2sccc2n1
# Procedure, shortened: as §1
# dasatinib = compound: Cc1nc(Nc2ncc(C(=O)Nc3c(C)cccc3Cl)s2)cc(N2CCN(CCO)CC2)n1 [dasatinib]
# Procedure, shortened: as §1
# [3] = compound: Cc1ncc(-c2ccnc(Nc3ccc(S(C)(=O)=O)cc3)n2)n1C(C)C
# Procedure, shortened: as §1
# [4] = compound: Cn1cc(-c2ccc3c(c2)CCN3C(=O)Cc2cccc(C(F)(F)F)c2)c2c(N)ncnc21
# Procedure, shortened: as §1
# [5] = compound: Cn1cc(-c2ccc3nnc(C(F)(F)c4ccc5ncccc5c4)n3n2)cn1
# Procedure, shortened: as §1
# tipifarnib = compound: Cn1cncc1[C@@](N)(c1ccc(Cl)cc1)c1ccc2c(c1)c(-c1cccc(Cl)c1)cc(=O)n2C [tipifarnib]
# Procedure, shortened: as §1
# mubritinib = compound: FC(F)(F)c1ccc(/C=C/c2nc(COc3ccc(CCCCn4ccnn4)cc3)co2)cc1 [mubritinib]
# Procedure, shortened: as §1
# [6] = compound: NC(=O)Nc1cc(-c2cccc(F)c2)sc1C(=O)N[C@H]1CCCNC1
# Procedure, shortened: as §1
# [7] = compound: NC(=O)c1cnc(N[C@@H]2CCCC[C@@H]2N)nc1Nc1cccc(-n2nccn2)c1
# Procedure, shortened: as §1
# [8] = compound: NC1(c2ccc(-c3nc4ccn5c(=O)[nH]nc5c4cc3-c3ccccc3)cc2)CCC1
# Procedure, shortened: as §1
# [9] = compound: NCC(=O)Nc1ccc(-n2nc(C(F)(F)F)cc2-c2ccc3c(ccc4ccccc43)c2)cc1
# Procedure, shortened: as §1
# entinostat = compound: Nc1ccccc1NC(=O)c1ccc(CNC(=O)OCc2cccnc2)cc1 [entinostat]
# Procedure, shortened: as §1
# vorinostat = compound: O=C(CCCCCCC(=O)Nc1ccccc1)NO [vorinostat]
# Procedure, shortened: as §1
# citarinostat = compound: O=C(CCCCCCNC(=O)c1cnc(N(c2ccccc2)c2ccccc2Cl)nc1)NO [citarinostat]
# Procedure, shortened: as §1
# silmitasertib = compound: O=C(O)c1ccc2c(c1)nc(Nc1cccc(Cl)c1)c1ccncc12 [silmitasertib]
# Procedure, shortened: as §1
# [10] = compound: O=C1NC(=O)C(c2cnc3ccccn23)=C1c1cn2c3c(cc(F)cc13)CN(C(=O)N1CCCCC1)CC2
# Procedure, shortened: as §1
# [11] = compound: c1cc(OCCN2CCCCC2)cc(-c2n[nH]c3ccc(-c4nnc[nH]4)cc23)c1
# Procedure, shortened: as §1
Target,log2 fold change (bafetinib),log2 fold change [1],log2 fold change (nilotinib),log2 fold change [2],log2 fold change (dasatinib),log2 fold change [3],log2 fold change [4],log2 fold change [5],log2 fold change (tipifarnib),log2 fold change (mubritinib),log2 fold change [6],log2 fold change [7],log2 fold change [8],log2 fold change [9],log2 fold change (entinostat),log2 fold change (vorinostat),log2 fold change (citarinostat),log2 fold change (silmitasertib),log2 fold change [10],log2 fold change [11]
CD47 (UniProt Q08722),inactive: -0.024,inactive: 0.024,inactive: 0.009,inactive: -0.039,inactive: 0.018,inactive: -0.015,inactive: 0.031,inactive: 0.031,inactive: 0.057,inactive: 0.073,inactive: -0.035,inactive: 0.009,inactive: 0.02,inactive: -0.002,inactive: 0.022,inactive: -0.073,inactive: 0.042,inactive: 0.003,inactive: -0.017,inactive: -0.062
CCDC117 (UniProt Q8IWD4),inactive: -0.092,inactive: -0.05,inactive: -0.133,inactive: -0.016,inactive: -0.03,inactive: -0.103,inactive: -0.078,inactive: -0.066,inactive: -0.013,inactive: 0.07,inactive: -0.123,inactive: -0.265,inactive: -0.035,inactive: -0.118,inactive: -0.187,inactive: -0.02,inactive: -0.02,inactive: -0.001,inactive: 0.011,inactive: -0.107
CCDC158 (UniProt Q5M9N0),inactive: 0.077,inactive: -0.08,inactive: -0.062,inactive: 0.101,inactive: 0.171,inactive: 0.062,inactive: -0.106,inactive: 0.009,inactive: 0.019,inactive: -0.061,inactive: -0.101,inactive: -0.115,inactive: 0.101,inactive: -0.086,inactive: 0.078,inactive: 0.078,–,inactive: 0.019,inactive: 0.055,–
CASP10 isoform 4 (UniProt Q92851),inactive: 0.001,inactive: -0.394,inactive: -0.087,inactive: -0.103,inactive: -0.301,inactive: 0.037,inactive: -0.044,inactive: 0.063,inactive: 0.119,inactive: 0.084,inactive: -0.089,inactive: -0.058,inactive: -0.084,inactive: -0.055,inactive: -0.05,inactive: 0.258,inactive: 0.123,inactive: 0.076,inactive: 0.089,inactive: -0.13
CD151 (UniProt P48509),inactive: 0.135,inactive: 0.015,inactive: -0.072,inactive: 0.157,inactive: 0.063,inactive: 0.019,inactive: 0.025,inactive: -0.002,inactive: -0.076,inactive: -0.092,inactive: -0.054,inactive: 0.139,inactive: 0.125,inactive: 0.024,inactive: 0.094,inactive: -0.025,inactive: -0.007,inactive: 0.031,inactive: -0.063,inactive: -0.009
CCT6A (UniProt P40227),inactive: 0.007,inactive: 0.008,inactive: -0.042,inactive: 0.033,inactive: -0.004,inactive: 0.007,inactive: 0.009,inactive: 0.002,inactive: 0.004,inactive: 0.004,inactive: 0.023,inactive: 0.029,inactive: 0.02,inactive: 0.019,inactive: -0.003,inactive: 0.021,inactive: -0.001,inactive: -0.019,inactive: -0.011,inactive: -0.016
CAST isoform 6 (UniProt P20810),inactive: -0.042,inactive: -0.064,inactive: 0.015,inactive: -0.013,inactive: 0.05,inactive: -0.019,inactive: -0.014,inactive: -0.041,inactive: 0.013,inactive: 0.01,inactive: -0.002,inactive: -0.028,inactive: 0.031,inactive: -0.005,inactive: -0.05,inactive: -0.046,inactive: 0.01,inactive: -0.016,inactive: -0.058,inactive: 0.016
CDC26 (UniProt Q8NHZ8),inactive: -0.034,inactive: 0.162,inactive: -0.011,inactive: -0.059,inactive: 0.143,inactive: 0.029,inactive: 0.179,inactive: -0.027,inactive: 0.131,inactive: -0.028,inactive: 0.034,inactive: 0.352,inactive: 0.152,active: 0.704,inactive: 0.097,inactive: 0.019,inactive: -0.025,inactive: -0.003,inactive: 0.007,inactive: -0.003
CARS isoform 3 (UniProt P49589),inactive: -0.039,inactive: 0.075,inactive: -0.029,inactive: 0.011,inactive: 0.016,inactive: -0.002,inactive: 0,inactive: 0.015,inactive: -0.03,inactive: 0.026,inactive: -0.012,inactive: -0.016,inactive: -0.034,inactive: -0.027,inactive: -0.011,inactive: 0.038,inactive: 0.02,inactive: -0.02,inactive: 0.002,inactive: -0.019
CCNT1 (UniProt O60563),inactive: 0.062,inactive: 0.036,inactive: 0.027,inactive: -0.272,inactive: -0.016,inactive: -0.301,inactive: -0.051,inactive: -0.122,inactive: 0.142,inactive: -0.093,inactive: -0.027,inactive: -0.03,inactive: -0.021,inactive: -0.02,inactive: 0.034,inactive: 0.176,inactive: 0.053,inactive: 0,inactive: 0.047,inactive: -0.094
CDC37 (UniProt Q16543),inactive: 0.007,inactive: -0.023,inactive: 0,inactive: -0.007,inactive: -0.014,inactive: 0.008,inactive: 0.03,inactive: 0.007,inactive: 0.004,inactive: 0.018,inactive: -0.006,inactive: -0.015,inactive: -0.02,inactive: -0.006,inactive: 0.001,inactive: 0.029,inactive: 0.004,inactive: -0.016,inactive: -0.023,inactive: 0.017
CCDC175 (UniProt P0C221),inactive: -0.078,inactive: 0.097,inactive: 0.104,inactive: -0.006,inactive: -0.024,inactive: -0.027,inactive: -0.094,inactive: -0.026,inactive: -0.065,inactive: 0.076,–,inactive: -0.13,inactive: -0.028,inactive: -0.051,–,inactive: -0.001,inactive: -0.039,inactive: -0.068,–,inactive: 0.027
CCDC12 (UniProt Q8WUD4),inactive: -0.026,inactive: -0.059,inactive: -0.007,inactive: 0,inactive: 0.078,inactive: 0.029,inactive: -0.059,inactive: -0.012,inactive: -0.008,inactive: 0.042,inactive: 0.001,inactive: -0.018,inactive: 0.027,inactive: -0.118,inactive: -0.017,inactive: -0.052,inactive: -0.003,inactive: -0.032,inactive: -0.063,inactive: 0.013
CBS (UniProt P35520),inactive: -0.031,inactive: -0.029,inactive: 0.025,inactive: -0.012,inactive: 0.018,inactive: -0.003,inactive: 0.079,inactive: 0.035,inactive: -0.023,inactive: 0.056,inactive: -0.008,inactive: 0.006,inactive: -0.025,inactive: 0.016,inactive: -0.033,inactive: -0.031,inactive: -0.058,inactive: -0.038,inactive: -0.027,inactive: 0.027
CCZ1 (UniProt P86791),inactive: -0.127,inactive: 0.007,inactive: 0.024,inactive: -0.022,inactive: -0.057,inactive: -0.098,inactive: 0.021,inactive: 0.025,inactive: 0.043,inactive: 0.038,inactive: 0.036,inactive: -0.072,active: -0.33,inactive: -0.077,inactive: 0.006,inactive: 0.013,inactive: -0.011,inactive: 0.039,inactive: -0.01,inactive: -0.033
CBWD1 (UniProt Q9BRT8),inactive: 0.027,inactive: 0.071,inactive: -0.067,inactive: 0,inactive: -0.189,inactive: 0.07,inactive: 0.13,inactive: 0.027,inactive: -0.046,inactive: 0.057,inactive: -0.042,inactive: -0.042,inactive: -0.109,inactive: 0.107,inactive: 0.007,inactive: 0.138,inactive: 0.097,inactive: 0.183,inactive: 0.03,inactive: -0.064

# Reprinted at random: 2 entries already listed, in no set order.
Target,log2 fold change (bafetinib),log2 fold change [1],log2 fold change (nilotinib),log2 fold change [2],log2 fold change (dasatinib),log2 fold change [3],log2 fold change [4],log2 fold change [5],log2 fold change (tipifarnib),log2 fold change (mubritinib),log2 fold change [6],log2 fold change [7],log2 fold change [8],log2 fold change [9],log2 fold change (entinostat),log2 fold change (vorinostat),log2 fold change (citarinostat),log2 fold change (silmitasertib),log2 fold change [10],log2 fold change [11]
CCT6A (UniProt P40227),inactive: 0.007,inactive: 0.008,inactive: -0.042,inactive: 0.033,inactive: -0.004,inactive: 0.007,inactive: 0.009,inactive: 0.002,inactive: 0.004,inactive: 0.004,inactive: 0.023,inactive: 0.029,inactive: 0.02,inactive: 0.019,inactive: -0.003,inactive: 0.021,inactive: -0.001,inactive: -0.019,inactive: -0.011,inactive: -0.016
CCDC158 (UniProt Q5M9N0),inactive: 0.077,inactive: -0.08,inactive: -0.062,inactive: 0.101,inactive: 0.171,inactive: 0.062,inactive: -0.106,inactive: 0.009,inactive: 0.019,inactive: -0.061,inactive: -0.101,inactive: -0.115,inactive: 0.101,inactive: -0.086,inactive: 0.078,inactive: 0.078,–,inactive: 0.019,inactive: 0.055,–

# — the supplement of paper PMC10849652
